Assay results published in article PMC6445129.
Results are given in words; binding and its absence hold for the method and conditions named. Binding seen in cells or lysates may run through a third protein. For some assays here: Binding calls can cover weak binding; strength is not graded here.

Protein sequences, listed by entry. Tags and fused reporters are not part of them. Lines headed by an entry give the natural chain unless they say otherwise; changes in a name come on top.
UniProt Q9Y2K7: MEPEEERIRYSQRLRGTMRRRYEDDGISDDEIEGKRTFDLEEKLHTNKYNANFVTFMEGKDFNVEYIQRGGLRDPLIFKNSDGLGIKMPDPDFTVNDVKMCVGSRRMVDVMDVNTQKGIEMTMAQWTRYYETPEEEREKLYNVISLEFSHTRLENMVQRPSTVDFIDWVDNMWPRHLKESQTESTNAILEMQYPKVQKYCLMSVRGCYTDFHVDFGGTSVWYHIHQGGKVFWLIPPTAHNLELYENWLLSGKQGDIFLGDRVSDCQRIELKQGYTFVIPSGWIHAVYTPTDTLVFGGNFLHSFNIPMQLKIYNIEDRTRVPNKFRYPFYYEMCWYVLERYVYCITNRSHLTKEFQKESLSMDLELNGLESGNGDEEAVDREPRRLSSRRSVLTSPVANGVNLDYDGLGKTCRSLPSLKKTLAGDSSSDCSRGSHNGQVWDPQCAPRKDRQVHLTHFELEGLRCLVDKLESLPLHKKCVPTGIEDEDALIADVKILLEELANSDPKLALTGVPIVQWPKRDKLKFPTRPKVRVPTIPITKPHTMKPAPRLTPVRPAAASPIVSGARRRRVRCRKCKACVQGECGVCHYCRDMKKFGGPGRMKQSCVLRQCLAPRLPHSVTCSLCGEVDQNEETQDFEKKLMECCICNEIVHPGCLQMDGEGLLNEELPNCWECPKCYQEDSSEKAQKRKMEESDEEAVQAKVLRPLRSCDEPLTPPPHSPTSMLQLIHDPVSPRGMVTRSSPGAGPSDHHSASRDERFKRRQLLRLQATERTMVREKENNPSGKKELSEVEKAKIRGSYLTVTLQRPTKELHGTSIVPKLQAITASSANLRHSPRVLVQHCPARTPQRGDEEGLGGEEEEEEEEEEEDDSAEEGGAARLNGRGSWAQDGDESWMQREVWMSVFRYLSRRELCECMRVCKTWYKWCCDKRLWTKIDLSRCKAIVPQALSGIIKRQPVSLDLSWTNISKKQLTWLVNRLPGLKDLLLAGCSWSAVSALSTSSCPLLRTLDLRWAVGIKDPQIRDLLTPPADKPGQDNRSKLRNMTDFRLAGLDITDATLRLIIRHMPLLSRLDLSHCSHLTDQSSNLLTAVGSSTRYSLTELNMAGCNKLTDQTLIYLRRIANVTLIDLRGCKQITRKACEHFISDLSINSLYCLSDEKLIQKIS
UniProt P13010: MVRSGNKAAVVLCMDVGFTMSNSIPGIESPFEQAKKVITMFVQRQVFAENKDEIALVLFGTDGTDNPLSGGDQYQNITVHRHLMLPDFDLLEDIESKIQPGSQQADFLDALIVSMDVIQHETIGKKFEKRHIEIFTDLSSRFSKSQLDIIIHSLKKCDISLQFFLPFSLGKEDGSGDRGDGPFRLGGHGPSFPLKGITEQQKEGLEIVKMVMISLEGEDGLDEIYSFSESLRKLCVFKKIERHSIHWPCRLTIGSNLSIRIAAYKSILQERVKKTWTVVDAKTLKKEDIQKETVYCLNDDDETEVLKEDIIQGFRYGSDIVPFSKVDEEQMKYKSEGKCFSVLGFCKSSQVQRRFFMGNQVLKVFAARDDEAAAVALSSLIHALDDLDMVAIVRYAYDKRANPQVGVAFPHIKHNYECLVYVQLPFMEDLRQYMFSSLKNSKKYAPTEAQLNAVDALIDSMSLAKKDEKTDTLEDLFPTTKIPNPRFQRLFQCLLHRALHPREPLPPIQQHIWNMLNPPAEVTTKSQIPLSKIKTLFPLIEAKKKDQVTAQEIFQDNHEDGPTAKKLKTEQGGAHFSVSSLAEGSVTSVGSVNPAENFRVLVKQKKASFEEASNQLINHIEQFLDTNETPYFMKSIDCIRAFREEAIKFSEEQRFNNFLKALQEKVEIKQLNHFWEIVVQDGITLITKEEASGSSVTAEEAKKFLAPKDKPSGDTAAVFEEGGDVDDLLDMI

Tests used:
[1] = biological target: EGFP-N782ΔCXXC (human) (UniProt Q9Y2K7); assay: co-IP; rabbit anti-GFP on protein A magnetic beads, lysates of keratinocytes expressing EGFP-N782 or its deletion mutants; Western blot of XRCC5
[2] = biological target: EGFP-N782ΔJmjC (human) (UniProt Q9Y2K7); assay: as above

## X-ray repair cross-complementing protein 5 (XRCC5), endogenous (from UniProt P13010 1-732)
[1]
  binding: no binding
[2]
  binding: binds
